Laboratory results published in US6716858B1, “Methods for inhibiting diabetic complications” (Kansas University Medical Center, priority 1995, dated 2004).

system: Sprague-Dawley rats, glomerular changes; assay: not given; assay type: in vivo, rat; conditions: 6 weeks; n = 4; average with standard error
Method: Male Sprague-Dawley rats (Sasco, 100 g) were used. After a 1 week adaptation period, rats were placed in metabolic cages to obtain a 24 hour urine specimen for 2 days before administration of injections. Rats were then divided into experimental and control groups and given tail vein injections with either saline, unmodified RSA (50 mg/kg), Amadori-RSA (50 mg/kg), NaBH4-reduced Amadori-RSA (50 mg/kg), or AGE-RSA (50 mg/kg).
Rats injected with Amadori-RSA and AGE-RSA were then either left untreated, or further treated by the administration of either aminoguanidine (AG; 25 mg/kg), pyridoxamine (PM; 25 mg/kg), or a combination of AG and PM (10 mg/kg each) through the drinking water. Body weight and water intake of the rats were monitored weekly in order to adjust dosages. At the conclusion of the experimental study the rats were placed in metabolic cages to obtain 24 hour urine specimen for 2 days prior to sacrificing the animals.
After perfusion with saline, kidney sections were fixed in ice-cold 10% neutral buffered formalin. Paraffin-embedded tissue sections from all rat groups (n=4 per group) were processed for staining with Harris' alum hematoxylin and eosin (H&E), perodic acid/Schiff reagent (PAS), and alcian blue (pH 1.0 and pH 2.5) stains for histological examination. The alcian blue sections were scored by two investigators in a blinded fashion.
Parrafin-embedded sections were deparaffinized and then blocked with 10% goat serum in PBS for 30 min at room temperature. […] The sections were then rinsed for 30 min with PBS in the dark, mounted in aqueous mounting media for immunocytochemistry (Biomeda), and cover slipped. Sections were scored in a blinded fashion. Kidney sections were evaluated by the number and intensity of glomerular staining in 5 regions around the periphery of the kidney. Scores were normalized for the immunofluorescent score per 100 glomeruli with a scoring system of 0-3.
All animals studies were carried out in conformance with institutional guidelines for animal research protocols. Male Sprague-Dawley 100 g rats (Sasco Co., Omaha Nebr.) were used in these studies. After a 1 week adaptation period, rats were placed in metabolic cages for 2 days to get two 24 hour urine specimens before starting treatment. Rats were then given daily single tail vein injections for 6 weeks according to the following treatment groups: saline, unmodified RSA (50 mg/kg), Amadori-RSA (50 mg/kg), NaBH4-reduced Amadori-RSA (50 mg/kg), and AGE-RSA (50 mg/kg). Groups of rats injected with Amadori-RSA or AGE-RSA were also administered aminoguanidine (25 mg/kg/day), pyridoxamine (25 mg/kg/day), a combination of the two (10 mg/kg/day each), or with nothing added to the drinking water. Body weight and water intake of the rat were monitored weekly in order to adjust dosages. At the conclusion of the study, the rats were placed in metabolic cages for two days to get two 24 hour urine specimens before sacrificing the animals.
Total protein in urine was determined by Bio-Rad assay. Albumin in urine was determined by competitive ELISA using rabbit anti-rat serum albumin (Cappell) as primary antibody (1:2000) and goat anti-rabbit IgG (Sigma) as a secondary antibody (1:2000). Urine was tested with Multistix 8 SG (Miles) for glucose, ketone, specific gravity, blood, pH, protein, nitrite and leukocytes. Creatinine measurements were performed with a Beckman creatinine analyzer II. Intracardiac blood samples were collected before termination and were used in the determination of creatinine clearance, blood glucose (glucose oxidase, Sigma), fructosamine (nitroblue tetrazolium, Sigma), and glycated Hb (Glycotest II analytical boronate columns, Pierce).
After perfusion with saline, kidney sections were fixed in ice-cold 10% neutral buffered formalin. […]

| Compound | Blood Glc [g/dL] | Body Wt [g] | Fructosamine [mmol/L] |
| --- | --- | --- | --- |
| NaBH4-reduced: Amadori-RSA reduced with NaBH4 | 108 ± 13 | 363 ± 35 | 1.47 ± 0.18 |
| RSA: purified rat serum albumin, unmodified | 104 ± 15 | 358 ± 35 | 1.16 ± 0.12 |
| Amadori-RSA: rat serum albumin incubated with 0.5 M ribose for 12 hours, then dialyzed; negative for antigenic AGEs | 96 ± 10 | 362 ± 15 | 1.40 ± 0.31 |
| AGE-RSA: Amadori-RSA re-incubated in the absence of sugar for 2-3 days at 37° C. | 112 ± 7 | 323 ± 38 | 1.28 ± 0.18 |
| Cc1ncc(CO)c(CN)c1O [pyridoxamine] | 107 ± 8 | 340 ± 30 | 1.06 ± 0.07 |

system: streptozotocin-induced diabetic rat; assay: STZ diabetic rat model, AGEs and crosslinking of collagen; assay type: in vivo; conditions: diabetic rats, 1 g/L in drinking water
Method: Animal studies. Diabetes was induced by a single tail vein injection of 45 mg/kg of STZ in 0.1 M sodium citrate buffer, pH 4.5. Control animals were sham injected with buffer only. Diabetes was confirmed by measuring blood glucose levels at 2 and 3 days after the STZ-injection. Animals with plasma glucose higher than 16 mM were classified as diabetic. The diabetic rats were divided randomly into an untreated diabetic group (n=12) and two diabetic treatment groups, receiving either PM (n=13) or AG (n=12) at 1 g/L in drinking water. Two non-diabetic control groups were included, one receiving no treatment (n=13), the other receiving PM(HCl)2 at 2 g/L in drinking water (n=12); the higher dose of PM in the PM-treated control group was designed to compensate, in part, for the lower water intake of non-diabetic, compared to diabetic animals. […]
Glycemic control. Glycemia was monitored by measurement of plasma glucose and glycated hemoglobin every four weeks, using a Sigma Trinder assay Kit (Sigma # 315). […] The plate was shaken for 18 min and the absorbance at 490 nm was measured in a Wallac Victor 1420 multilabel counter (Wallac Inc. Gaithersburg, Md.). Glycated hemoglobin (GlcHb) was measured on whole blood by boronate affinity chromatography using a Sigma kit for total glycated hemoglobin (Sigma # 442-B). […]

| Compound | glycemic control (mean plasma glucose, GlcHb) |
| --- | --- |
| N=C(N)NN [aminoguanidine, reference compound] | Neither PM nor AG had an effect on glycemic control in diabetic animals |
| Cc1ncc(CO)c(CN)c1O [pyridoxamine] | Neither PM nor AG had an effect on glycemic control in diabetic animals |
